For one compound, Papp results are on record in ChEMBL document CHEMBL4665727, “Discovery of biphenyl pyrazole scaffold for neurodegenerative diseases: A novel class of acetylcholinesterase-centered multitargeted ligands” (Bioorg Med Chem Lett, 2020).

Each structure is given as a SMILES string.

A short description of this series: Permeability of compound by PAMPA-BBB assay. On the technique in general: In PAMPA a lipid-coated filter parts donor from acceptor wells.

The term Papp denotes the rate of passage across a membrane or cell layer, normalised by area and donor concentration. In the case of `COc1cc2c(cc1OC)C(=O)C(CC1CCN(Cc3ccccc3)CC1)C2` (stereo unspecified) [DONEPEZIL], the apparent permeability coefficient (Papp) turned out to be 23.4 ×10⁻⁶ cm/s.
